Results deposited as PubChem BioAssay AID1259308 (NCATS, 2017)
The deposit covers about 59,000 reagents; below is an unselected part. In the full data, about 1,510 (2.6%) are marked active. 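Calls use total luciferase alone and ignore viability, so some active siRNAs may act by altering cell number.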 A number with no mark means an inactive call. The numbers tell different reagents against one gene apart. No sequences are given here.

Aim: 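Knock-downs that increase output of a recombinant reporter protein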 (primary screen)
Cells: human HEK293 embryonic kidney cells stably expressing firefly luciferase (HEK-CMV-Luc2-Hygro)
Reagents: single siRNA against human genes, 0.8 pmol siRNA per well
Time to read-out: 72 h
Detection: 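Reporter luminescence and viable-cell signal on separate replicate plates, given as percent of non-targeting control and median/MAD z-scores, plus per-cell luciferase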
Scale: total luciferase, z-score and total luciferase, % of control: higher = more reporter protein produced; luciferase per cell, z-score: higher = more reporter output per viable cell; viable cells, % of control: higher = more viable cells
Active means: 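An siRNA counts as active if its total luciferase robust z-score exceeds 3; genes with two or more such siRNAs out of three were retested with fresh siRNAs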
Calls: active = raised luciferase; inactive = no rise

| gene symbol | reagent no. | total luciferase, z-score | total luciferase, % of control | luciferase per cell, z-score | viable cells, % of control |
| --- | --- | --- | --- | --- | --- |
| SHE | 1 | -0.73 | 67.4 | -0.825 | 93.5 |
| SHE | 2 | -1.03 | 61.4 | -1.11 | 91.9 |
| SHE | 3 | -1.51 | 51.8 | -1.33 | 82.1 |
| IL2 | 1 | -0.378 | 74.4 | 0.113 | 80.7 |
| IL2 | 2 | -0.141 | 79.1 | 0.122 | 85.6 |
| IL2 | 3 | 1.46 | 111 | 1.05 | 94 |
| ALS2 | 1 | 0.696 | 95.7 | -0.185 | 112 |
| ALS2 | 2 | -1.52 | 51.6 | -2.27 | 105 |
| ALS2 | 3 | 0.499 | 91.8 | -0.62 | 121 |
| CDCP1 | 1 | -2.39 | 34.3 | -2.43 | 72.7 |
| CDCP1 | 2 | -0.237 | 77.2 | -0.68 | 103 |
| CDCP1 | 3 | -0.324 | 75.5 | 0.0199 | 83.9 |
| RAB7A | 1 | 0.0596 | 83.1 | -0.374 | 102 |
| RAB7A | 2 | 0.662 | 95 | 0.859 | 84.7 |
| RAB7A | 3 | 2.44 | 130 | 1.33 | 103 |
| ADCY2 | 1 | 0.265 | 87.1 | 0.382 | 88.1 |
| ADCY2 | 2 | -0.0919 | 80.1 | 0.387 | 80.8 |
| ADCY2 | 3 | -1.07 | 60.7 | -1.69 | 106 |
| RBM46 | 1 | -0.196 | 78 | -0.86 | 109 |
| RBM46 | 2 | 2.12 | 124 | 1.86 | 84.8 |
| RBM46 | 3 | 2.46 | 131 | 1.08 | 110 |
| MYL6 | 1 | -0.0887 | 80.1 | -0.34 | 97.9 |
| MYL6 | 2 | -1.14 | 59.3 | -0.734 | 80.4 |
| MYL6 | 3 | 1.52 | 112 | 0.945 | 97.7 |
| LARS1 | 1 | 0.343 | 88.7 | 0.296 | 91.7 |
| LARS1 | 2 | -0.0198 | 81.5 | -0.428 | 102 |
| LARS1 | 3 | -0.084 | 80.2 | -0.375 | 98.9 |
| INSL4 | 1 | -0.795 | 66.1 | -0.744 | 89.8 |
| INSL4 | 2 | -0.0578 | 80.7 | 1.47 | 61.2 |
| INSL4 | 3 | -2.87 | 24.8 | -3.65 | 72.7 |
| VAPA | 1 | -0.895 | 64.1 | -0.632 | 84.6 |
| VAPA | 2 | 0.362 | 89.1 | 0.178 | 95 |
| VAPA | 3 | -0.686 | 68.2 | -0.37 | 84.1 |
| FAM131A | 1 | 0.101 | 83.9 | -0.383 | 104 |
| FAM131A | 2 | -0.637 | 69.2 | 0.14 | 74.5 |
| FAM131A | 3 | -0.505 | 71.8 | 0.401 | 72.2 |
| PPP2R5E | 1 | 1.54 | 113 | 1.47 | 85.5 |
| PPP2R5E | 2 | -0.81 | 65.8 | -0.961 | 94.7 |
| PPP2R5E | 3 | 3.21 (active) | 146 | 2.67 | 80.6 |
| ACTR6 | 1 | -0.164 | 78.6 | -0.529 | 101 |
| ACTR6 | 2 | 1.08 | 103 | 0.458 | 102 |
| ACTR6 | 3 | -0.553 | 70.9 | -0.456 | 89.3 |
| DNAJB9 | 1 | -0.0389 | 81.1 | -0.275 | 97.4 |
| DNAJB9 | 2 | -2.16 | 39 | -2.8 | 91.1 |
| DNAJB9 | 3 | 0.546 | 92.7 | 0.348 | 94.6 |
| GRIA1 | 1 | 0.107 | 84 | -0.158 | 97.9 |
| GRIA1 | 2 | 0.584 | 93.5 | -0.113 | 108 |
| GRIA1 | 3 | 0.438 | 90.6 | -0.225 | 107 |
| NME6 | 1 | 0.331 | 88.5 | 0.184 | 94.2 |
| NME6 | 2 | 1.58 | 113 | 1.21 | 92.1 |
| NME6 | 3 | -0.651 | 68.9 | -1.6 | 117 |
| RAB2A | 1 | -0.0891 | 80.1 | -0.6 | 105 |
| RAB2A | 2 | -0.715 | 67.7 | -0.895 | 95.7 |
| RAB2A | 3 | -0.818 | 65.6 | -1.03 | 96.1 |
| SNAP29 | 1 | -0.988 | 62.2 | -0.658 | 82.7 |
| SNAP29 | 2 | -1.24 | 57.2 | -0.858 | 80.2 |
| SNAP29 | 3 | 0.902 | 99.8 | 1.06 | 84.4 |

Reagents listed so far marked active:
| gene symbol | reagent no. | total luciferase, z-score | total luciferase, % of control | luciferase per cell, z-score | viable cells, % of control |
| --- | --- | --- | --- | --- | --- |
| PPP2R5E | 3 | 3.21 (active) | 146 | 2.67 | 80.6 |
